Measurements taken from PMC12225019.
Results are given in words; binding and its absence hold for the method and conditions named. In cells and extracts the contact can be indirect. Some binding calls cover weakened binding; strength is not graded here. Where a sequence is shown, tags or fusion partners need not be part of it.

Sequences of proteins named here, by UniProt entry; tags and fusion partners are left off.
UniProt P19474: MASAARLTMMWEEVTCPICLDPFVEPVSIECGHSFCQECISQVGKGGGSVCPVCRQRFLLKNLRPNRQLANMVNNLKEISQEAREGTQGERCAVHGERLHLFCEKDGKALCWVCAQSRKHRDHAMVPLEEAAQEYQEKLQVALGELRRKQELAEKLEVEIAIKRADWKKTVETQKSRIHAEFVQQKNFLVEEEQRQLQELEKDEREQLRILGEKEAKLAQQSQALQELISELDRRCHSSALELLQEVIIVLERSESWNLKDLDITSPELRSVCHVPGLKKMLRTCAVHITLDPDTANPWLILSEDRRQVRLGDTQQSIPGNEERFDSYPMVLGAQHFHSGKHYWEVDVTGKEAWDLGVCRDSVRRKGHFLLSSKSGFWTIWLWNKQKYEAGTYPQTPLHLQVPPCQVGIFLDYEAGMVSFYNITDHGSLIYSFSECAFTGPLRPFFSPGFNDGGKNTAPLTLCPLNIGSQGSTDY

Target: T1, Flag‐HMGA2‐S105A mutant (human) (UniProt P52926)
T1 sequence: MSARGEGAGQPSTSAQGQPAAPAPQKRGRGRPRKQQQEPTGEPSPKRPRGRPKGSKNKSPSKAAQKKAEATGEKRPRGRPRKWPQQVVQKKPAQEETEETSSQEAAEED
Assay: co-IP; TRIM21 interaction of HMGA2-S105A against wild type (Figure S5E; legend not shown; co-IP is the only binding method that the paper describes)

With “tripartite motif‐containing 21 (TRIM21) (from UniProt P19474 1-475)” as the substance, how does the binding read?
The binding was “binds”.
